Assay results published in publication PMC12315713.
No constants are given. Whether binding was seen depends on the method and setting. In cells and extracts the contact can be indirect. One block for each molecule: values may come before it.

Chains of the proteins cited; added tags and fusions are not shown.
UniProt Q9UJU2: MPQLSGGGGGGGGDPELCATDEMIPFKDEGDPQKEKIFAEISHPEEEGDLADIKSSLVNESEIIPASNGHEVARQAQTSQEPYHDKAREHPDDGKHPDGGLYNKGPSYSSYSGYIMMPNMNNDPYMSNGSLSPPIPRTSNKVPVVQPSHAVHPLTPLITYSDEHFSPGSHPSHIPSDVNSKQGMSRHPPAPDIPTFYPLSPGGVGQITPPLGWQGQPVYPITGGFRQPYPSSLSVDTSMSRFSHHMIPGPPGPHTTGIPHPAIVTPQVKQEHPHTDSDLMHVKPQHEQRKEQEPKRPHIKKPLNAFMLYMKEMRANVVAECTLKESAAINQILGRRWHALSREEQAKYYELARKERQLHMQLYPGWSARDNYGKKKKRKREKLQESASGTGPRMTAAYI
UniProt P35222: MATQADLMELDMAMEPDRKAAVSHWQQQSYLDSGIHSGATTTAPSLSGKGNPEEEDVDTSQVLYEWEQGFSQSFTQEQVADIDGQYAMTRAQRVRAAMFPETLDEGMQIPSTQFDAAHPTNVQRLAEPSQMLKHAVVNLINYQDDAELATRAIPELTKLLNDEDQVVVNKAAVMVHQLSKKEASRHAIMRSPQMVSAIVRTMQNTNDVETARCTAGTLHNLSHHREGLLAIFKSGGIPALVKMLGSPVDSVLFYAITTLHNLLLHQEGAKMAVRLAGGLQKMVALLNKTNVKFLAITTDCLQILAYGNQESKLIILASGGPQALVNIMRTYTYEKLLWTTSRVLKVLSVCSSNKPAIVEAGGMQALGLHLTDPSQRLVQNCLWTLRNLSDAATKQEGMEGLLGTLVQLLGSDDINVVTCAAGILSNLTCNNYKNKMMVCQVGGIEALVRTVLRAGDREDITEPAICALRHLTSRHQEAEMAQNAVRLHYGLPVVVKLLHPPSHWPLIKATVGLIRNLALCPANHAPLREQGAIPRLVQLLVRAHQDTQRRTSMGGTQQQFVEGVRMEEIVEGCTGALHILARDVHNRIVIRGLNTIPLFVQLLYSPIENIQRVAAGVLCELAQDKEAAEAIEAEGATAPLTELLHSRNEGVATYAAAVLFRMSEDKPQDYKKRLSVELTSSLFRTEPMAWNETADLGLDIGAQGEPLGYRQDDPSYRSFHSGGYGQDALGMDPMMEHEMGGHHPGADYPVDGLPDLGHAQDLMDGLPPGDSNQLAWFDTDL

Experiments:
[1] = molecular target: T1, CCCTC binding factor (CTCF) (human (endogenous in HEK293T)) (UniProt P49711); assay: condition: only Wnt-OFF (LGK), without Wnt signaling induction; proximity ligation; Duolink PLA kit in HEK293T cells, Wnt-OFF (1 nM LGK, 24 h); endogenous proteins detected with mouse anti-beta-catenin and rabbit anti-CTCF (1:200); foci per nucleus counted by confocal microscopy
T1 sequence: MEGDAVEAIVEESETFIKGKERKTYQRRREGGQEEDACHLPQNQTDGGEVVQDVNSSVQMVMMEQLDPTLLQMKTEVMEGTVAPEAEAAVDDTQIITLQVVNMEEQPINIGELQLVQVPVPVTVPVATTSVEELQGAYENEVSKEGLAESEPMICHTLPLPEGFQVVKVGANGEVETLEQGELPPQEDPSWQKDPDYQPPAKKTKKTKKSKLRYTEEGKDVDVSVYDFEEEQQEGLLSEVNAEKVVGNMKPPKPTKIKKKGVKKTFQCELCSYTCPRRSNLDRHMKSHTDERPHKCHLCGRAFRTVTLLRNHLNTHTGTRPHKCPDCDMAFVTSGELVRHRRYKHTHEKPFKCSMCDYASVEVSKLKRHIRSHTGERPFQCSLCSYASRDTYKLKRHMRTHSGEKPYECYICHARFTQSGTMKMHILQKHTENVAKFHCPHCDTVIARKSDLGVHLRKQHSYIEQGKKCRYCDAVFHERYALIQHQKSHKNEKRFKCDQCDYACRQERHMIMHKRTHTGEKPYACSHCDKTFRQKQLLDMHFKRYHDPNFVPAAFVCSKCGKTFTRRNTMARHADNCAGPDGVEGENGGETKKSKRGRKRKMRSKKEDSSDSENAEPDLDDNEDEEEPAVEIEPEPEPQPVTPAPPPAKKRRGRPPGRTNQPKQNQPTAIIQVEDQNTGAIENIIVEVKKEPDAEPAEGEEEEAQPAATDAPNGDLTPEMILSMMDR

[2] = molecular target: LEF1-FLAG (UniProt Q9UJU2); assay: co-IP; nuclear lysates; overexpressed LEF1-FLAG pulled down with anti-FLAG, mouse IgG isotype control; western blot with anti-CTCF

binding [1]: no binding
Molecule: CTNNB1 (also known as beta-catenin) (from UniProt P35222 1-781)

binding [2]: no binding
B1: CCCTC binding factor (CTCF) (protein, UniProt P49711 1-727)
chain: T1 sequence
